Results: PubChem BioAssay AID248 (DTP/NCI, 2004)
The list does not hold the whole screen: it is rich in T/C values a quarter to a half above the control, in often repeated tests (any T/C) and in doses without a T/C. Further doses and runs are listed elsewhere. T/C gives the treated animals as a percentage of the vehicle group. Some entries give survivors of the animals treated and no T/C: the source holds a T/C of zero for them, seemingly a mark for toxic or unscored doses. Counts of survivors are from the toxicity check (mostly the fifth day) where no day follows; animals may have died later. Schedule codes are those of the source, taken here to give the interval after Q, in days (D) or hours (H), and the number of doses after X. Some schedules carry Z or #; the key to these is not given. For survival time, the PubChem record calls one and a half times the control and up active, and a quarter to a half above the control has no call in these data; cut-offs in other NCI protocols can differ. Some entries hold several experiments; their values stand side by side, smallest first. Some T/C values carry the count of animals alive at the toxicity check (mostly the fifth day); where none is given, no animal had died by that day.

System: L1210 leukemia ip in BDF1 mice, survival T/C
Experiment: NCI In Vivo Anticancer Drug Screen. Data for tumor model L1210 Leukemia (intraperitoneal) in B6D2F1 (BDF1) mice
Conditions: higher T/C = longer survival

In the case of `Nc1ncn(C2OC(CO)C(O)C2O)c(=O)n1` (stereo not drawn), the survivor count (T/C endpoint: mean survival time, dose: 256.0 mg/kg/injection, schedule: Q## X008 (oral), vehicle: saline) is reported as 3 of 10, the survivor count (T/C endpoint: mean survival time, dose: 384.0 mg/kg/injection, schedule: Q01DX001 (ip), vehicle: saline) is reported as 0 of 10 and the survivor count (T/C endpoint: mean survival time, dose: 400.0 mg/kg/injection, schedule: Q01DX001 (ip), vehicle: other) is reported as 0 of 4. For the same molecule, the T/C (T/C endpoint: mean survival time, dose: 512.0 mg/kg/injection, schedule: Q01DX001 (oral), vehicle: saline) was 148 % of control, the T/C (T/C endpoint: median survival time, dose: 0.47 mg/kg/injection, schedule: Q01DX009 (ip), vehicle: saline, evaluated on day 5) was 137 % of control and the T/C (T/C endpoint: median survival time, dose: 0.47 mg/kg/injection, schedule: Q01DX009 (ip), vehicle: saline, evaluated on day 40) was 127 % of control. For the same molecule, the T/C (T/C endpoint: median survival time, dose: 0.65 mg/kg/injection, schedule: Q01DX009 (ip), vehicle: saline, evaluated on day 5) was 176 and 183 % of control, the T/C (T/C endpoint: median survival time, dose: 0.65 mg/kg/injection, schedule: Q01DX009 (ip), vehicle: saline, evaluated on day 27) was 133 % of control and the T/C (T/C endpoint: median survival time, dose: 0.65 mg/kg/injection, schedule: Q01DX009 (ip), vehicle: saline, evaluated on day 30) was 187 % of control. For the same molecule, the T/C (T/C endpoint: median survival time, dose: 0.65 mg/kg/injection, schedule: Q01DX009 (ip), vehicle: saline, evaluated on day 33) was 166 % of control, the T/C (T/C endpoint: median survival time, dose: 0.65 mg/kg/injection, schedule: Q01DX009 (ip), vehicle: saline, evaluated on day 34) was 176 % of control and the T/C (T/C endpoint: median survival time, dose: 0.78 mg/kg/injection, schedule: Q01DX009 (ip), vehicle: saline) was 145 % of control. The T/C (T/C endpoint: median survival time, dose: 1.0 mg/kg/injection, schedule: Q01DX005 (ip), vehicle: saline) was 141 % of control, the T/C (T/C endpoint: median survival time, dose: 1.08 mg/kg/injection, schedule: Q01DX009 (ip), vehicle: saline, evaluated on day 5) was 208 % of control and the T/C (T/C endpoint: median survival time, dose: 1.08 mg/kg/injection, schedule: Q01DX009 (ip), vehicle: saline, evaluated on day 27) was 183 % of control. The T/C (T/C endpoint: median survival time, dose: 1.08 mg/kg/injection, schedule: Q01DX009 (ip), vehicle: saline, evaluated on day 33) was 177 % of control, the T/C (T/C endpoint: median survival time, dose: 1.08 mg/kg/injection, schedule: Q01DX009 (ip), vehicle: saline, evaluated on day 34) was 208 % of control and the T/C (T/C endpoint: median survival time, dose: 1.25 mg/kg/injection, schedule: Q04DX003 (ip), vehicle: saline, evaluated on day 5) was 122 and 124 % of control. The T/C (T/C endpoint: median survival time, dose: 1.25 mg/kg/injection, schedule: Q04DX003 (ip), vehicle: saline, evaluated on day 8) was 112 % of control [4 of 6 alive], the T/C (T/C endpoint: median survival time, dose: 1.25 mg/kg/injection, schedule: Q04DX003 (ip), vehicle: saline, evaluated on day 35) was 122 % of control and the T/C (T/C endpoint: median survival time, dose: 1.8 mg/kg/injection, schedule: Q01DX009 (ip), vehicle: saline, evaluated on day 5) was 230 and 274 % of control. For the same molecule, the T/C (T/C endpoint: median survival time, dose: 1.8 mg/kg/injection, schedule: Q01DX009 (ip), vehicle: saline, evaluated on day 27) was 177 % of control, the T/C (T/C endpoint: median survival time, dose: 1.8 mg/kg/injection, schedule: Q01DX009 (ip), vehicle: saline, evaluated on day 30) was 225 % of control and the T/C (T/C endpoint: median survival time, dose: 1.8 mg/kg/injection, schedule: Q01DX009 (ip), vehicle: saline, evaluated on day 33) was 233 % of control. For the same molecule, the T/C (T/C endpoint: median survival time, dose: 1.8 mg/kg/injection, schedule: Q01DX009 (ip), vehicle: saline, evaluated on day 34) was 274 % of control, the T/C (T/C endpoint: median survival time, dose: 2.0 mg/kg/injection, schedule: Q01DX005 (ip), vehicle: saline) was 126 % of control and the T/C (T/C endpoint: median survival time, dose: 2.5 mg/kg/injection, schedule: Q04DX003 (ip), vehicle: saline, evaluated on day 5) was 135, 141, 148 % of control. For the same molecule, the T/C (T/C endpoint: median survival time, dose: 2.5 mg/kg/injection, schedule: Q04DX003 (ip), vehicle: saline, evaluated on day 8) was 120 % of control [4 of 6 alive], the T/C (T/C endpoint: median survival time, dose: 2.5 mg/kg/injection, schedule: Q04DX003 (ip), vehicle: saline, evaluated on day 35) was 133 % of control and the T/C (T/C endpoint: median survival time, dose: 2.5 mg/kg/injection, schedule: Q04DX003 (ip), vehicle: saline, evaluated on day 40) was 144 % of control. For the same molecule, the T/C (T/C endpoint: median survival time, dose: 3.0 mg/kg/injection, schedule: Q01DX009 (ip), vehicle: saline, evaluated on day 5) was 112 and 197 % of control, the T/C (T/C endpoint: median survival time, dose: 3.0 mg/kg/injection, schedule: Q01DX009 (ip), vehicle: saline, evaluated on day 27) was 250 % of control and the T/C (T/C endpoint: median survival time, dose: 3.0 mg/kg/injection, schedule: Q01DX009 (ip), vehicle: saline, evaluated on day 30) was 187 % of control. The T/C (T/C endpoint: median survival time, dose: 3.0 mg/kg/injection, schedule: Q01DX009 (ip), vehicle: saline, evaluated on day 33) was 100, 130, 133 % of control, the T/C (T/C endpoint: median survival time, dose: 3.0 mg/kg/injection, schedule: Q01DX009 (ip), vehicle: saline, evaluated on day 34) was 112 % of control and the T/C (T/C endpoint: median survival time, dose: 3.0 mg/kg/injection, schedule: Q04DX003 (ip), vehicle: saline, evaluated on day 5) was 143, 158, 163 % of control. The T/C (T/C endpoint: median survival time, dose: 3.0 mg/kg/injection, schedule: Q04DX003 (ip), vehicle: saline, evaluated on day 30) was 144 and 162 % of control, the T/C (T/C endpoint: median survival time, dose: 3.0 mg/kg/injection, schedule: Q04DX003 (ip), vehicle: saline, evaluated on day 33) was 145 and 150 % of control and the T/C (T/C endpoint: median survival time, dose: 3.0 mg/kg/injection, schedule: Q04DX003 (ip), vehicle: saline, evaluated on day 60) was 170 % of control. The T/C (T/C endpoint: median survival time, dose: 4.0 mg/kg/injection, schedule: Q01DX005 (ip), vehicle: saline) was 144 % of control, the T/C (T/C endpoint: median survival time, dose: 5.0 mg/kg/injection, schedule: Q01DX009 (ip), vehicle: saline, evaluated on day 5) was 106 and 143 % of control and the T/C (T/C endpoint: median survival time, dose: 5.0 mg/kg/injection, schedule: Q01DX009 (ip), vehicle: saline, evaluated on day 30) was 143 % of control. The T/C (T/C endpoint: median survival time, dose: 5.0 mg/kg/injection, schedule: Q01DX009 (ip), vehicle: saline, evaluated on day 34) was 106 % of control.
